# In the supplement of paper PMC9135407:
# Several values for one entry are separate records, joined by “and”; a condition that tells them apart may be missing. Identical values can stand only once. Counter-ions that a name gives are not always drawn. ± gives the standard deviation of the averaged measurements. This is one part of the list. Plates or batches differ in their baseline, so values are only roughly comparable.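 Primary human stellate myofibroblasts activated in culture; inactivation shown by regained lipid droplets. Readout: fraction of Hoechst-counted cells exceeding a per-plate Bodipy threshold, duplicate wells, each plate with DMSO negative and nortriptyline positive controls. Hits: control-normalized score beyond the plate's top-tenth-percentile nortriptyline wells, or among its three best wells. Final well concentrations unstated.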
# Tested on: primary human hepatic stellate cells (donor 1)
# Assay: percent Bodipy-positive cells; higher = more lipid droplet accumulation
# Details: 48 h
# [1] = library stock concentration: 10 mM
# [2] = library stock concentration: 1 mM
# [3] = library stock concentration: 3.33 mM
# [4] = library stock concentration: 80 uM
# [5] = library stock concentration: 400 uM
# [6] = library stock concentration: 2 mM
# [7] = library stock concentration: 100 uM
structure (smiles),measurement,setting,value
CC(C)[C@H](NC(=O)[C@H](CC(=O)O)NC(=O)[C@H](CCCCN)NC(=O)[C@@H](N)CCCN=C(N)N)C(=O)N[C@@H](Cc1ccc(O)cc1)C(=O)O,percent Bodipy-positive cells,[1],35.1 ± 3.9%
"CCCCC[C@H](O)/C=C/[C@H]1[C@H](O)CC(=O)[C@@H]1CCCCCCCCC(=O)O [1a,1b-dihomo Prostaglandin E1]",percent Bodipy-positive cells,[2],15.5 ± 2.8%
C[C@]12CC[C@@H]3c4ccc(O)cc4CC[C@H]3[C@@H]1CCC2=O [Estrone],percent Bodipy-positive cells,,10.6 ± 2.7%
same,percent Bodipy-positive cells,[3],11.4 ± 4.7%
c1cc(OCCN2CCCCC2)cc(-c2n[nH]c3ccc(-c4ncn[nH]4)cc23)c1,percent Bodipy-positive cells,[1],98.7 ± 1.1%
Nc1ncnc2c1c(-c1cccc(OCc3ccccc3)c1)cn2C1CC(CN2CCC2)C1 (centres undefined),percent Bodipy-positive cells,[4],43.8 ± 17%
same,percent Bodipy-positive cells,[5],45.2 ± 4.7%
same,percent Bodipy-positive cells,[6],63.7 ± 2.4%
same,percent Bodipy-positive cells,[1],99.57 ± 0.61%
O=c1c2sc(-c3ccc(F)cc3)cc2ncn1Cc1nc2ccccc2[nH]1,percent Bodipy-positive cells,[1],78.2 ± 1.8%
COc1cc(C(=O)NC2CCCNC2)cc(OC)c1OC (centres undefined) [Troxipide],percent Bodipy-positive cells,[3],11.1 ± 7%
same,percent Bodipy-positive cells,[1],28.2 ± 17%
c1ccc(N2CCN(Cc3nc4ccccc4[nH]3)CC2)nc1 [ABT 724 trihydrochloride],percent Bodipy-positive cells,[1],8.25 ± 2.3%
COC(=O)c1c(-c2cc(OC)c(OC)c(OC)c2)c2ccnc(OCc3ncccn3)c2c(=O)n1Cc1ccnc(C)c1 [T 0156 hydrochloride],percent Bodipy-positive cells,[1],7.23 ± 3.7%
CCCCC/C=C\C\C=C/C=C/C=C/[C@@H](SC[C@H](NC(=O)CC[C@H](N)C(=O)O)C(=O)NCC(=O)O)[C@@H](O)CCCC(=O)O [Leukotriene C4],percent Bodipy-positive cells,[7],7.82 ± 10%
CC(C)c1cc(C(=O)N2Cc3ccc(CN4CCN(C)CC4)cc3C2)c(O)cc1O,percent Bodipy-positive cells,[3],70.8 ± 14%
same,percent Bodipy-positive cells,[1],86.8 ± 0.51%
COc1ccc2cc(CC(=O)O)ccc2c1 [6-methoxy Naphthalene Acetic Acid],percent Bodipy-positive cells,[2],9.87 ± 1.1%
Cl.O=S(=O)(c1cccc2c(Cl)cccc12)N1CCCNCC1 [ML 9 hydrochloride],percent Bodipy-positive cells,[1],58.62 ± 0.29%
CC(=O)OCC(=O)[C@@]1(O)CC[C@H]2[C@@H]3C[C@H](C)C4=CC(=O)C=C[C@]4(C)[C@H]3[C@@H](O)C[C@@]21C,percent Bodipy-positive cells,[1],26.4 ± 5.1%
CC12CC3CC(C)(C1)CC(N)(C3)C2.Cl [Memantine hydrochloride],percent Bodipy-positive cells,[1],92.9 ± 2.1%
CCCCCCCCCCCCCCCNC(=O)C1CCCCC1 [N-Cyclohexanecarbonylpentadecylamine],percent Bodipy-positive cells,[2],10.5 ± 1.8%
CCOC(=O)C1=C[C@]2(CC)CCCN3CCc4c(n1c1ccccc41)[C@@H]32 [Vinpocetine],percent Bodipy-positive cells,,24.8 ± 2.2%
same,percent Bodipy-positive cells,library stock concentration: 5.7 mM,18.9% and 19%
same,percent Bodipy-positive cells,library stock concentration: 14.3 mM,11.3 ± 3.3%
CC(=O)c1cc2c(cc1O)OC(C)(C)C=C2 [Eupatoriochromene],percent Bodipy-positive cells,[1],26.68 ± 0.048%
CC1CN(S(=O)(=O)c2cccc3cnccc23)CCN1 (centres undefined),percent Bodipy-positive cells,[1],50.7 ± 4%
COc1ccccc1O [Guaiacol],percent Bodipy-positive cells,library stock concentration: 16.1 mM,8.06 ± 5%
CC1CNCCN1S(=O)(=O)c1cccc2cnccc12 (centres undefined),percent Bodipy-positive cells,[1],45.9 ± 3.4%
CCCC1([C@H](O)C/C=C/[C@H]2[C@H](O)CC(=O)[C@@H]2CCCCCCC(=O)OC)CCC1 [Butaprost],percent Bodipy-positive cells,[2],16.2 ± 2.6%
CCCC1([C@H](O)C/C=C/[C@H]2[C@H](O)CC(=O)[C@@H]2CCCCCCC(=O)OC)CCC1 [Butaprost (free acid)],percent Bodipy-positive cells,[2],17 ± 2.3%
CNCCC(Oc1ccccc1OC)c1ccccc1 (centres undefined) [Nisoxetine hydrochloride],percent Bodipy-positive cells,,27.8 ± 1.8%
COc1cc(CCC(C)=O)ccc1O [Vanillylacetone],percent Bodipy-positive cells,[3],8.18 ± 3.1%
same,percent Bodipy-positive cells,[1],19.1 ± 9.9%
O=NN(CCCl)C(=O)NC1CCCCC1 [Lomustine],percent Bodipy-positive cells,[3],12.7 ± 0.56%
same,percent Bodipy-positive cells,library stock concentration: 8.6 mM,5.65 ± 0.95%
same,percent Bodipy-positive cells,[1],11.7 ± 2.5%
O=C(O)CCn1c2c(c3ccccc31)C[C@H](NS(=O)(=O)c1ccc(F)cc1)CC2,percent Bodipy-positive cells,[2],12.9 ± 4.7%
COc1cnc(NS(=O)(=O)c2ccc(N)cc2)nc1 [Sulfameter],percent Bodipy-positive cells,,11.5 ± 5.5%
same,percent Bodipy-positive cells,[3],9.7 ± 3.3%
same,percent Bodipy-positive cells,library stock concentration: 7.1 mM,18.3 ± 1.7%
same,percent Bodipy-positive cells,[1],8.22% and 27%
O=C(O)CCC(=O)Nc1ccc(S(=O)(=O)Nc2nccs2)cc1 [Succinylsulfathiazole],percent Bodipy-positive cells,,10.9 ± 2.6%
same,percent Bodipy-positive cells,[1],24.5 ± 4.5%
Cn1cnnc1Sc1c([N+](=O)[O-])ncn1C,percent Bodipy-positive cells,[1],4.43 ± 2.5%
Cc1cccc(CN2CCN(C(c3ccccc3)c3ccc(Cl)cc3)CC2)c1 (centres undefined) [Meclizine hydrochloride],percent Bodipy-positive cells,[1],45.2% and 69%
Cc1cccc(CN2CCN(C(c3ccccc3)c3ccc(Cl)cc3)CC2)c1 (centres undefined) [Meclozine dihydrochloride],percent Bodipy-positive cells,,48.4 ± 3.3%
"CCCCCCCCCCCC=CC(C)(C)C=CCCCC(=O)O [7,7-Dimethyleicosadienoic acid]",percent Bodipy-positive cells,[2],8.79 ± 3.8%
CCCCCCCN(CC)CCCC(O)c1ccc(NS(C)(=O)=O)cc1 (centres undefined) [Ibutilide Fumarate],percent Bodipy-positive cells,[3],19.79 ± 0.17%
same,percent Bodipy-positive cells,[1],49.2 ± 5.7%
Cc1nnc(C(C)C)n1C1C[C@H]2CC[C@@H](C1)N2CC[C@H](NC(=O)C1CCC(F)(F)CC1)c1ccccc1 (stereo in doubt) [Maraviroc],percent Bodipy-positive cells,[3],5.89 ± 0.14%
same,percent Bodipy-positive cells,[1],11.6 ± 2.5%
C=C1C[C@]23C[C@@]1(O)CC[C@H]2[C@@]12C=C[C@H](O)[C@@](C)(C(=O)O1)[C@H]2[C@@H]3C(=O)O [Gibberellic acid],percent Bodipy-positive cells,,9.44 ± 0.2%
CC1(C)S[C@@H]2[C@H](NC(=O)[C@H](NC(=O)N3CCN(S(C)(=O)=O)C3=O)c3ccccc3)C(=O)N2[C@H]1C(=O)O [Mezlocillin Sodium],percent Bodipy-positive cells,[3],12.7 ± 0.22%
same,percent Bodipy-positive cells,[1],24.8 ± 1.7%
Cn1c(=O)cc(N2CCC[C@@H](N)C2)n(Cc2ccccc2C#N)c1=O [Alogliptin],percent Bodipy-positive cells,[3],5.806 ± 0.052%
same,percent Bodipy-positive cells,[1],19.7 ± 12%
Cc1ccc(NC(=O)C(C)C)cc1C1CCN(Cc2ccc(Oc3ccc(F)c(F)c3)cc2)CC1.Cl,percent Bodipy-positive cells,[1],79.8 ± 1.4%
CN(C)CCC=C1c2ccccc2CCc2ccccc21.Cl [Amitriptyline HCl],percent Bodipy-positive cells,[1],90.7 ± 1.8%
O=C(Nc1ccc2c(c1)CCN(Cc1ncn[nH]1)C2)c1ccccc1-c1ccc(C(F)(F)F)cc1,percent Bodipy-positive cells,[1],29.4 ± 14%
"N#Cc1cc([N+](=O)[O-])c2sc(C(N)=O)[n+]([O-])c2c1 [Polo-like Kinase Inhibitor II, BTO-1]",percent Bodipy-positive cells,[3],10.5 ± 0.94%
COc1cc(Nc2ncc(F)c(Nc3ccc4c(n3)N(COP(=O)(O)O)C(=O)C(C)(C)O4)n2)cc(OC)c1OC [Fostamatinib (R788)],percent Bodipy-positive cells,[3],57.2 ± 5.9%
COc1ccc(-c2cc(=O)c3c(O)cc(O[C@@H]4O[C@H](CO[C@@H]5O[C@@H](C)[C@H](O)[C@@H](O)[C@H]5O)[C@@H](O)[C@H](O)[C@H]4O)cc3o2)cc1O [Diosmin],percent Bodipy-positive cells,[3],9.03 ± 5.4%
CCCCCCCC/C=C\CCCCCCCCCCCCCC(=O)N[C@@H](CO)[C@H](O)/C=C/CCCCCCCCCCCCC [Nervonic Ceramide],percent Bodipy-positive cells,[2],8.32 ± 0.25%
CN(C)CCC(c1ccc(Cl)cc1)c1ccccn1.O=C(O)/C=C\C(=O)O (centres undefined),percent Bodipy-positive cells,[1],87.03 ± 0.49%
CCOC(=O)c1ncc2[nH]c3cccc(OC(C)C)c3c2c1C,percent Bodipy-positive cells,[1],10.9 ± 0.49%
COC1=C2C[C@@H](C)C[C@H](OC)[C@H](O)[C@@H](C)/C=C(\C)[C@H](OC(N)=O)[C@@H](OC)/C=C\C=C(/C)C(=O)NC(=CC1=O)C2=O [Geldanamycin],percent Bodipy-positive cells,[3],75.9 ± 1.6%
same,percent Bodipy-positive cells,library stock concentration: 8.9 mM,62 ± 7.7%
same,percent Bodipy-positive cells,[1],100%
CN1CC2c3ccccc3Oc3ccc(Cl)cc3C2C1 (centres undefined) [Asenapine],percent Bodipy-positive cells,[3],27.6 ± 6.7%
same,percent Bodipy-positive cells,[1],77.6 ± 2.5%
CN1CC2c3ccccc3Oc3ccc(Cl)cc3C2C1 (centres undefined) [Asenapine maleate],percent Bodipy-positive cells,[1],65.9 ± 19%
COc1ccc(C(=O)c2ccc(C)cc2)c(O)c1,percent Bodipy-positive cells,[1],41.2 ± 7.8%
NC(=O)NC(=O)Cc1ccccc1 [Phenacemide],percent Bodipy-positive cells,[1],11.9 ± 1.1%
CCCC[C@H](C)C[C@H](O)/C=C/[C@H]1[C@H](O)CC(=O)[C@@H]1CCCCC(CC(=O)O)OC (some centres undefined) [3-methoxy Limaprost],percent Bodipy-positive cells,[2],8.26 ± 0.44%
CC1(C)[C@H]2CC[C@]1(CS(=O)(=O)O)C(=O)C2=Cc1ccc(C=C2C(=O)[C@@]3(CS(=O)(=O)O)CC[C@@H]2C3(C)C)cc1,percent Bodipy-positive cells,[1],51 ± 21%
CC1CS(=O)(=O)CCN1/N=C/c1ccc([N+](=O)[O-])o1 (centres undefined) [Nifurtimox],percent Bodipy-positive cells,,8.14 ± 2.5%
CNC(=O)Nc1ccc(-c2nc(N3CC4CCC(C3)O4)c3cnn(C4CCC5(CC4)OCCO5)c3n2)cc1,percent Bodipy-positive cells,[4],5.49 ± 0.84%
same,percent Bodipy-positive cells,[5],5.47 ± 0.38%
same,percent Bodipy-positive cells,[6],11.8 ± 2.4%
same,percent Bodipy-positive cells,[3],7.89 ± 3.7%
same,percent Bodipy-positive cells,[1],72.5% and 71.2%
CCCCC/C=C\CC1OC1C/C=C\C/C=C\CCCC(=O)O (centres undefined),percent Bodipy-positive cells,[7],11.1 ± 10%
CC(CN(C)C)CN1c2ccccc2CCc2ccccc21.O=C(O)/C=C\C(=O)O (centres undefined) [Trimipramine maleate],percent Bodipy-positive cells,[1],93.85 ± 0.59%
CSc1nc(N)c2ncn([C@@H]3O[C@H](COP(=O)(O)OP(=O)(O)OP(=O)(O)O)[C@H](O)C3O)c2n1 (some centres undefined) [2-Methylthioadenosine triphosphate tetrasodium],percent Bodipy-positive cells,[1],38.86 ± 0.25%
CCCCCCCCCCCC1N[C@H](C(=O)O)CS1 (some centres undefined),percent Bodipy-positive cells,[2],9.73 ± 1.7%
"CC(=O)C(C)=O [2,3-Butanedione]",percent Bodipy-positive cells,[1],29.3 ± 8.7%
c1ccc2[nH]c(-c3cscn3)nc2c1,percent Bodipy-positive cells,[1],39.1 ± 8.9%
c1ccc2[nH]c(-c3cscn3)nc2c1 [Tiabendazole],percent Bodipy-positive cells,,27.2 ± 1.2%
c1ccc2[nH]c(-c3cscn3)nc2c1 [Thiabendazole],percent Bodipy-positive cells,[3],14.6 ± 1.7%
same,percent Bodipy-positive cells,library stock concentration: 9.9 mM,16.4 ± 2.7%
Cn1cc(-c2ccc3nnc(C(F)(F)c4ccc5ncccc5c4)n3n2)cn1,percent Bodipy-positive cells,[4],15.8 ± 12%
same,percent Bodipy-positive cells,[5],14% and 16.5%
same,percent Bodipy-positive cells,[6],8.29% and 21.2%
same,percent Bodipy-positive cells,[3],9.27 ± 0.39%
OC[C@@H](O)[C@@H](O[C@@H]1O[C@H](CO)[C@H](O)[C@H](O)[C@H]1O)[C@H](O)[C@@H](O)CO,percent Bodipy-positive cells,[1],29.5 ± 3.1%
CCC(CC)CC1(C(=O)Nc2ccccc2SC(=O)C(C)C)CCCCC1,percent Bodipy-positive cells,[3],12.2 ± 4%
same,percent Bodipy-positive cells,[1],22 ± 8.5%
CN1[C@@H](CC(=O)c2ccccc2)CCC[C@H]1C[C@H](O)c1ccccc1 [Lobeline],percent Bodipy-positive cells,library stock concentration: 5.9 mM,12.5 ± 1.8%
CN1[C@@H](CC(=O)c2ccccc2)CCC[C@H]1C[C@H](O)c1ccccc1,percent Bodipy-positive cells,[1],28.2 ± 4.2%
CN1[C@@H](CC(=O)c2ccccc2)CCC[C@H]1C[C@H](O)c1ccccc1 [Lobeline alpha (-) hydrochoride],percent Bodipy-positive cells,,43.1 ± 0.79%
CN1[C@@H](CC(=O)c2ccccc2)CCC[C@H]1C[C@H](O)c1ccccc1 [alpha-Lobeline hydrochloride],percent Bodipy-positive cells,[1],64.6 ± 1.5%
CN1[C@@H](CC(=O)c2ccccc2)CCC[C@H]1C[C@H](O)c1ccccc1 [Lobeline hydrochloride],percent Bodipy-positive cells,[1],19.8% and 26.9%
Cc1c(C(=O)NN2CCOCC2)nn(-c2ccc(Cl)cc2Cl)c1-c1ccc(I)cc1,percent Bodipy-positive cells,[1],18.6 ± 2.4%
